From patent US10202443 come the findings set out here.

Protein sequences, listed by entry. Tags and fused reporters are not part of them.
UniProt Q13148: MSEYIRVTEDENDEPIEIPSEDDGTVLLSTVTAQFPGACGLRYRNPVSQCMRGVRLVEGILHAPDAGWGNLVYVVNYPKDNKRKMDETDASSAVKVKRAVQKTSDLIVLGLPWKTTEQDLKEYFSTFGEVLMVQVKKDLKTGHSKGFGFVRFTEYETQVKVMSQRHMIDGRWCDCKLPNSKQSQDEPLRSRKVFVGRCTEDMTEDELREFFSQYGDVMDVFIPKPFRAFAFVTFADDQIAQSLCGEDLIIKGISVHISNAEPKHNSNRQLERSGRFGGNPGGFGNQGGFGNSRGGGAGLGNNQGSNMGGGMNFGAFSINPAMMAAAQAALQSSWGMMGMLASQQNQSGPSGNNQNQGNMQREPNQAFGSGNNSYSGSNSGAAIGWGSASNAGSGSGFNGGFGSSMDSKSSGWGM

Residue numbers refer to the chain shown, from its start. These are yes or no findings as the source states them, for the method shown. In cells and extracts the contact can be indirect. Some binding calls cover weakened binding; strength is not graded here.

Experiment [1] has as its target cellular TDP-43 of HEK293 cells (UniProt Q13148). Briefly: co-immunoprecipitation, Hek293 cells transfected with the scFv plasmid.
For experiment [2] the target is unchanged. Briefly: co-immunoprecipitation from HEK293 lysates with polyclonal anti-TDP-43, myc detection.

B1: E6_VH1Vκ9 scFv antibody (scFv)
scFv: LQESGGGLVQPGGSMKLSCVASGFTSSNYWLNWVRQSPERGLEWVAEIRLKSNNYATNYAESVKGRFTISRDDSKSSVYLQVNNLRAEDTGIYYCTRSTARATPYYFDYWGQGTTVTVSSGGGGSGGGGSGGGGSDIELTQSPSSLAVSAGEKVTMSCKSSQSLLNSRARKNFLTWYQQKPGQSPKLLIYWASTRESGVPDRFTGSGSGTDFTLTISSVQAEDLAVYYCKQSYNLYTFGGGTKLEEQKLISEEDLN
With B1, the binding entry in experiment [1] and in experiment [2] was “binds” in each case.

B2: E6_VH7Vκ9 scFv antibody (scFv)
scFv: B1 scFv with E3Q
For the molecule B2, the binding entry in experiment [2] is “binds”.
